# The list is a part of this screen's results and no random one: it is rich in T/C values a quarter to a half above the control, in often repeated tests (any T/C) and in doses without a T/C. Further doses and runs are listed elsewhere. T/C gives the treated animals as a percentage of the vehicle group. Some entries give survivors of the animals treated and no T/C: the source files T/C as zero there, which appears to mark a toxic dose or a test without result, not a measured value. Some survivor counts are full or nearly so, which does not show that the dose was tolerated: the source hardly ever lists a survival T/C far under the control, and the zero likely stands for such cases as well. Survivors were counted at the toxicity check, usually on the fifth day, unless a day is given; later deaths do not show. Schedules are NCI's codes, taken here to give the interval after Q, in days (D) or hours (H), and the number of doses after X. Some doses were run more than once; the results are listed from low to high. Where survival is the endpoint, this PubChem deposit counts one and a half times the control or more as active, and values a quarter to a half above the control carry no call in these data; other NCI protocols may use other cut-offs. Marks such as (2×) give the number of equal values in this list. Some T/C values are followed by the survivors on the day toxicity was checked, most often the fifth; where none is given, no animal had died by that day.
# System: P388 leukemia ip, CD2F1 mice, survival T/C
# Test: NCI In Vivo Anticancer Drug Screen. Data for tumor model P388 Leukemia (intraperitoneal) in CD2F1 (CDF1) mice
# Settings: T/C endpoint: median survival time, higher T/C = longer survival
# [1] = dose: 50.0 mg/kg/injection, schedule: Q01DX009 (ip), vehicle: saline
# [2] = dose: 100.0 mg/kg/injection, schedule: Q01DX009 (ip), vehicle: saline
# [3] = dose: 200.0 mg/kg/injection, schedule: Q01DX009 (ip), vehicle: saline
# [4] = dose: 25.0 mg/kg/injection, schedule: Q01DX009 (ip), vehicle: saline with Tween-80
# [5] = dose: 50.0 mg/kg/injection, schedule: Q01DX009 (ip), vehicle: saline with Tween-80
# [6] = dose: 100.0 mg/kg/injection, schedule: Q01DX009 (ip), vehicle: saline with Tween-80
# [7] = dose: 200.0 mg/kg/injection, schedule: Q01DX005 (ip), vehicle: saline with Tween-80
# [8] = dose: 240.0 mg/kg/injection, schedule: Q01DX005 (ip), vehicle: saline with Tween-80
# [9] = dose: 100.0 mg/kg/injection, schedule: Q01DX005 (ip), vehicle: saline
# [10] = dose: 200.0 mg/kg/injection, schedule: Q01DX005 (ip), vehicle: saline
# [11] = dose: 200.0 mg/kg/injection, schedule: Q01DX009 (ip), vehicle: saline with Tween-80
# [12] = dose: 100.0 mg/kg/injection, schedule: Q01DX005 (ip), vehicle: Klucel (hydroxypropylcellulose) (HPC)
# [13] = dose: 200.0 mg/kg/injection, schedule: Q01DX005 (ip), vehicle: Klucel (hydroxypropylcellulose) (HPC)
compound,measurement,setting,value
CN1CCN(C(=O)N2c3ccccc3Sc3ccccc32)CC1,T/C,[1],127 % of control
same,survivor count,[2],2 of 6
same,survivor count,[3],0 of 6
CN1CC[C@]23c4c5ccc(O)c4O[C@H]2C(=O)CC[C@H]3[C@H]1C5,survivor count,[2],2 of 6
same,survivor count,[3],0 of 6
COc1cc2cc[n+](C)c(C)c2cc1OC,survivor count,"dose: 200.0 mg/kg/injection, schedule: Q01DX009 (ip), vehicle: distilled water + Tween-80",0 of 6 and 1 of 6
same,survivor count,"dose: 400.0 mg/kg/injection, schedule: Q01DX009 (ip), vehicle: distilled water + Tween-80",0 of 6
CC(=O)c1c(O)c(C)c(C)c2c1OC(=O)C2C (stereo not given),survivor count,[4],3 of 6
same,survivor count,[5],0 of 6
same,survivor count,[6],0 of 6
c1ccc(C2=NNC(c3ccccc3)=NN2)cc1,survivor count,"dose: 3.12 mg/kg/injection, schedule: Q01DX009 (ip), vehicle: saline with Tween-80",6 of 6
same,survivor count,"dose: 6.25 mg/kg/injection, schedule: Q01DX009 (ip), vehicle: saline with Tween-80",6 of 6
same,survivor count,"dose: 12.5 mg/kg/injection, schedule: Q01DX009 (ip), vehicle: saline with Tween-80",6 of 6
CCCCCCCCCC[N+]1([O-])CCOCC1,survivor count,[3],2 of 6
NNc1n[nH]c(=O)c2cnccc12,survivor count,"dose: 200.0 mg/kg/injection, schedule: Q04DX002 (ip), vehicle: saline with Tween-80",2 of 6
same,survivor count,"dose: 400.0 mg/kg/injection, schedule: Q04DX002 (ip), vehicle: saline with Tween-80",0 of 6
Cc1ccc(S(=O)(=O)N/N=C2/C=CC3(CCCC3)CC2)cc1,survivor count,"dose: 100.0 mg/kg/injection, schedule: Q01DX001 (ip), vehicle: Klucel (hydroxypropylcellulose) (HPC)",6 of 6
O=C(Nc1ccc(Cl)cc1)Nc1nnc(Cc2ccc(Cl)cc2)o1,survivor count,[7],6 of 6
COC(=O)C1=C(C(=O)OC)C2(C)OC1c1ccccc12 (stereo not given),survivor count,"dose: 120.0 mg/kg/injection, schedule: Q01DX005 (ip), vehicle: saline with Tween-80",0 of 6
same,survivor count,[8],0 of 6
C[N+](C)(C)NC1OC(C(O)S(=O)(=O)O)C(OCc2ccccc2)C(OCc2ccccc2)C1O (stereo not given),survivor count,[3],1 of 6
CCOC(=S)NC(=O)c1ccccc1,survivor count,"dose: 400.0 mg/kg/injection, schedule: Q01DX009 (ip), vehicle: saline with Tween-80",3 of 6
CN(C)C1=NC(NCc2ccccc2)(N(C)C)OC(N(C)C)=N1 (stereo not given),survivor count,[9],2 of 6
same,survivor count,[10],0 of 6
O=[N+]([O-])C1(Br)COC(c2cccc(O)c2)OC1 (stereo not given),survivor count,[4],3 of 6
same,survivor count,[5],1 of 6 and 2 of 6
same,survivor count,[6],0 of 6
same,survivor count,[11],0 of 6
COc1ccc2c(c1)CC1c3c(cc4c(c3-2)OCO4)CCN1C (stereo not given),survivor count,"dose: 240.0 mg/kg/injection, schedule: Q01DX005 (ip), vehicle: Klucel (hydroxypropylcellulose) (HPC)",0 of 6
O=P(c1ccccc1)(N1CC1)N1CC1,survivor count,"dose: 60.0 mg/kg/injection, schedule: Q04DX003 (ip), vehicle: saline",6 of 6
COC1=CC(=O)C(C(c2ccc(OC)cc2)N2CCOCC2)=CC1=O (stereo not given),survivor count,"dose: 100.0 mg/kg/injection, schedule: Q01DX005 (ip), vehicle: saline with Tween-80",0 of 6
same,survivor count,[7],0 of 6
CCOc1ccc(C(C)c2cc3c(cc2OC)OCO3)cc1 (stereo not given),T/C,"dose: 50.0 mg/kg/injection, schedule: Q01DX005 (ip), vehicle: distilled water + Tween-80, evaluated on day 20",100 % of control
same,T/C,"dose: 50.0 mg/kg/injection, schedule: Q01DX005 (ip), vehicle: distilled water + Tween-80, evaluated on day 30","105, 111, 115 % of control"
same,T/C,"dose: 50.0 mg/kg/injection, schedule: Q01DX005 (ip), vehicle: distilled water + Tween-80, evaluated on day 60",111 % of control
same,T/C,"dose: 100.0 mg/kg/injection, schedule: Q01DX005 (ip), vehicle: distilled water + Tween-80, evaluated on day 20",115 % of control
same,T/C,"dose: 100.0 mg/kg/injection, schedule: Q01DX005 (ip), vehicle: distilled water + Tween-80, evaluated on day 30","116, 118, 123 % of control"
same,T/C,"dose: 100.0 mg/kg/injection, schedule: Q01DX005 (ip), vehicle: distilled water + Tween-80, evaluated on day 60",120 % of control
same,T/C,"dose: 200.0 mg/kg/injection, schedule: Q01DX005 (ip), vehicle: distilled water + Tween-80, evaluated on day 20",137 % of control
same,T/C,"dose: 200.0 mg/kg/injection, schedule: Q01DX005 (ip), vehicle: distilled water + Tween-80, evaluated on day 30","119, 132, 142, 157, 178 % of control"
same,T/C,"dose: 200.0 mg/kg/injection, schedule: Q01DX005 (ip), vehicle: distilled water + Tween-80, evaluated on day 60",131 % of control
same,survivor count,"dose: 250.0 mg/kg/injection, schedule: Q01DX005 (ip), vehicle: distilled water + Tween-80",6 of 6
same,T/C,"dose: 400.0 mg/kg/injection, schedule: Q01DX005 (ip), vehicle: distilled water + Tween-80, evaluated on day 20",161 % of control [4 of 6 alive]
same,T/C,"dose: 400.0 mg/kg/injection, schedule: Q01DX005 (ip), vehicle: distilled water + Tween-80, evaluated on day 30",129 % of control
same,survivor count,"dose: 400.0 mg/kg/injection, schedule: Q01DX005 (ip), vehicle: distilled water + Tween-80",2 of 6 and 6 of 10
same,survivor count,"dose: 555.55 mg/kg/injection, schedule: Q01DX005 (ip), vehicle: distilled water + Tween-80",4 of 6
same,survivor count,"dose: 555.56 mg/kg/injection, schedule: Q01DX005 (ip), vehicle: distilled water + Tween-80",4 of 6
C/C(=C\C(=N\N=C(N)N)c1ccc(Cl)cc1)c1ccc(Cl)cc1,survivor count,[4],6 of 6
same,survivor count,[5],1 of 6
same,survivor count,[6],0 of 6
same,survivor count,[11],0 of 6
CN(C)CC(CN(C)C)C(=O)/C=C/c1ccccc1,survivor count,"dose: 6.25 mg/kg/injection, schedule: Q01DX005 (ip), vehicle: saline",4 of 6 and 5 of 6
same,survivor count,"dose: 12.5 mg/kg/injection, schedule: Q01DX005 (ip), vehicle: saline",0 of 6
same,survivor count,"dose: 25.0 mg/kg/injection, schedule: Q01DX005 (ip), vehicle: saline",0 of 6
same,survivor count,"dose: 50.0 mg/kg/injection, schedule: Q01DX005 (ip), vehicle: saline",0 of 6
same,survivor count,[9],0 of 6
same,survivor count,[10],0 of 6
CCN(CC)CCOCCOC1(C)CCC(C(C)C)CC1 (stereo not given),survivor count,"dose: 200.0 mg/kg/injection, schedule: Q01DX005 (ip), vehicle: suspension in saline",0 of 6
CCCCCCCCCNCC(O)c1cc2c(c3ccccc13)CCCC2 (stereo not given),survivor count,"dose: 50.0 mg/kg/injection, schedule: Q01DX005 (ip), vehicle: Klucel (hydroxypropylcellulose) (HPC)",3 of 5
same,survivor count,[12],0 of 5
same,survivor count,[13],0 of 5
CCCCCCCCCCCCCCCCS(=O)CC(O)COC(=O)c1ccc(C(=O)OCC(O)CS(=O)CCCCCCCCCCCCCCCC)cc1 (stereo not given),T/C,"dose: 200.0 mg/kg/injection, schedule: Q01DX009 (ip), vehicle: other",129 % of control
same,T/C,"dose: 400.0 mg/kg/injection, schedule: Q01DX009 (ip), vehicle: other",138 % of control
C=C(C)C(=O)N(CC)CC,survivor count,[1],6 of 6
O=S(=O)(O)c1ccc2c(N=Nc3ccccc3[As](=O)(O)O)c(O)c(S(=O)(=O)O)cc2c1,T/C,"dose: 132.0 mg/kg/injection, schedule: Q01DX009 (ip), vehicle: saline with Tween-80",136 % of control
same,T/C,[11],131 % of control (2×)
same,survivor count,"dose: 300.0 mg/kg/injection, schedule: Q01DX009 (ip), vehicle: saline with Tween-80",4 of 6
C=CCn1c(SC)nc2c(c1=O)CCCC2,survivor count,[8],2 of 6
c1ccc2c(Nc3ccc4c(c3)OCO4)c3c(nc2c1)CCCC3,survivor count,[12],0 of 6
same,survivor count,[13],0 of 6
